Results deposited as PubChem BioAssay AID1159578 (Peter MacCallum Cancer Centre, 2015)
The whole screen tested about 18,000 reagents; below is an unselected part. Over the whole deposit, about 1,030 (5.7%) got an active call. 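Inactive calls also include pools with fewer than 3300 nuclei, whose migration was not assessed.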 Raw values vary from plate to plate and are shown uncorrected. Not all columns of the deposit are shown. Reagent sequences are not shown.

- Assay: 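Genome-wide hunt for genes controlling movement of lymphatic endothelial cells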 (primary screen)
- System: human lymphatic endothelial cells
- Reagents: siRNA pool against human genes, 40 nM
- Time to read-out: 48 h after transfection
- Detection: 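High-content imaging of dye-stained cells in a scratch assay measures filled wound area and nuclei per well; duplicate means given as ratio to mock and robust z-score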
- Direction: migration robust z-score: higher = faster migration into the scratch; nuclei per well: higher = more cells in the well
- Active means: 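Pools averaging fewer than 3300 nuclei are never called; remaining pools count as changed when migration robust z lies outside -2 to 2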
- Calls: active = migration changed; inactive = no migration change, or too few cells

The first 5 records, to show the layout:
gene	PubChem SID	migration robust z-score	migration class with cell-count check	nuclei per well, duplicate mean	outcome
CAPZA3 (GeneID 93661)	SID255362093	-0.02	migration z between -2 and 2; enough cells	5718	inactive
RPL22 (GeneID 6146)	SID255352179	-1.24	migration z between -2 and 2; enough cells	5356	inactive
CDK19 (GeneID 23097)	SID255355988	-1.53	migration z between -2 and 2; enough cells	6186	inactive
SLC10A1 (GeneID 6554)	SID255352481	-0.54	migration z between -2 and 2; enough cells	6946	inactive
HKDC1 (GeneID 80201)	SID255360698	-0.08	migration z between -2 and 2; enough cells	6208	inactive

Results, from the start:
gene	PubChem SID	migration robust z-score	migration class with cell-count check	nuclei per well, duplicate mean	outcome
CAPZA3 (GeneID 93661)	SID255362093	-0.02	migration z between -2 and 2; enough cells	5718	inactive
RPL22 (GeneID 6146)	SID255352179	-1.24	migration z between -2 and 2; enough cells	5356	inactive
CDK19 (GeneID 23097)	SID255355988	-1.53	migration z between -2 and 2; enough cells	6186	inactive
SLC10A1 (GeneID 6554)	SID255352481	-0.54	migration z between -2 and 2; enough cells	6946	inactive
HKDC1 (GeneID 80201)	SID255360698	-0.08	migration z between -2 and 2; enough cells	6208	inactive
C5orf22 (GeneID 55322)	SID255358597	-3.86	under 3300 nuclei; migration not judged	3177	inactive
TUSC1 (GeneID 286319)	SID255364914	2.1	migration z above 2; enough cells	5514	active
MPST (GeneID 4357)	SID255351024	-3.68	migration z below -2; enough cells	4246	active
TMEM135 (GeneID 65084)	SID255360087	-0.29	migration z between -2 and 2; enough cells	6869	inactive
KCNT2 (GeneID 343450)	SID255365161	-0.34	migration z between -2 and 2; enough cells	6022	inactive
OR2A5 (GeneID 393046)	SID255365711	-1.32	migration z between -2 and 2; enough cells	7322	inactive
CBLN4 (GeneID 140689)	SID255363121	-0.89	migration z between -2 and 2; enough cells	4210	inactive
ERAP2 (GeneID 64167)	SID255359858	1.76	migration z between -2 and 2; enough cells	5174	inactive
SPAG9 (GeneID 9043)	SID255353986	-1.09	migration z between -2 and 2; enough cells	5606	inactive
ZNF408 (GeneID 79797)	SID255360471	0.86	migration z between -2 and 2; enough cells	5157	inactive
PEDS1 (GeneID 387521)	SID255365441	0.79	migration z between -2 and 2; enough cells	5748	inactive
TIAL1 (GeneID 7073)	SID255352867	0.16	migration z between -2 and 2; enough cells	6811	inactive
TNS2 (GeneID 23371)	SID255356193	1.54	migration z between -2 and 2; enough cells	4926	inactive
SLC12A2 (GeneID 6558)	SID255352485	-0.8	migration z between -2 and 2; enough cells	5438	inactive
PRPF6 (GeneID 24148)	SID255356444	-1.64	migration z between -2 and 2; enough cells	6270	inactive
TLR6 (GeneID 10333)	SID255355005	0.57	migration z between -2 and 2; enough cells	5748	inactive
DNAJC5B (GeneID 85479)	SID255361717	1.33	migration z between -2 and 2; enough cells	5279	inactive
LOC728919 (retired record) (GeneID 728919)	SID318171913	1.53	migration z between -2 and 2; enough cells	5928	inactive
SHF (GeneID 90525)	SID255361837	1.12	migration z between -2 and 2; enough cells	4604	inactive
KRTAP21-2 (GeneID 337978)	SID255364974	0.94	migration z between -2 and 2; enough cells	5668	inactive
RNASEH2C (GeneID 84153)	SID255361217	-2.46	migration z below -2; enough cells	4392	active
SFMBT1 (GeneID 51460)	SID255357730	1.38	migration z between -2 and 2; enough cells	5785	inactive
CHMP4C (GeneID 92421)	SID255362012	0.18	migration z between -2 and 2; enough cells	5668	inactive
KYAT1 (GeneID 883)	SID255348727	-0.06	migration z between -2 and 2; enough cells	5408	inactive
SIRT3 (GeneID 23410)	SID255356221	0.31	migration z between -2 and 2; enough cells	5094	inactive
LDHD (GeneID 197257)	SID255363987	0.06	migration z between -2 and 2; enough cells	5561	inactive
IL18RAP (GeneID 8807)	SID255353828	1.55	migration z between -2 and 2; enough cells	4962	inactive
CHAMP1 (GeneID 283489)	SID255364682	0.93	migration z between -2 and 2; enough cells	4038	inactive
POT1 (GeneID 25913)	SID255356548	-0.9	migration z between -2 and 2; enough cells	3455	inactive
EPHA1 (GeneID 2041)	SID255349520	-0.05	migration z between -2 and 2; enough cells	3546	inactive
STEAP3 (GeneID 55240)	SID255358530	0.39	migration z between -2 and 2; enough cells	6631	inactive
CCDC121 (GeneID 79635)	SID255360348	0.2	migration z between -2 and 2; enough cells	6236	inactive
GRINA (GeneID 2907)	SID255350046	-1.17	migration z between -2 and 2; enough cells	5474	inactive
IDI2 (GeneID 91734)	SID255361945	-0.08	migration z between -2 and 2; enough cells	5794	inactive
CDSN (GeneID 1041)	SID255348857	-0.08	migration z between -2 and 2; enough cells	5040	inactive
DUSP9 (GeneID 1852)	SID255349401	-0.52	migration z between -2 and 2; enough cells	5072	inactive
NUP93 (GeneID 9688)	SID255354473	-0.24	migration z between -2 and 2; enough cells	5658	inactive
PDZRN4 (GeneID 29951)	SID255357240	-0.98	migration z between -2 and 2; enough cells	5810	inactive
ZNF570 (GeneID 148268)	SID255363376	-1.12	migration z between -2 and 2; enough cells	5878	inactive
VWC2L (GeneID 402117)	SID255365814	0.58	migration z between -2 and 2; enough cells	6171	inactive
TLX1NB (GeneID 100038246)	SID318171914	-0.69	migration z between -2 and 2; enough cells	4987	inactive
AGPAT1 (GeneID 10554)	SID255355174	-0.1	migration z between -2 and 2; enough cells	4077	inactive
WDR46 (GeneID 9277)	SID255354164	-0.9	migration z between -2 and 2; enough cells	6280	inactive
EQTN (GeneID 54586)	SID255358099	0.89	migration z between -2 and 2; enough cells	5492	inactive
DAPL1 (GeneID 92196)	SID255361988	0.69	migration z between -2 and 2; enough cells	6094	inactive
GP1BA (GeneID 2811)	SID255349967	0.36	migration z between -2 and 2; enough cells	5680	inactive
RBBP4 (GeneID 5928)	SID255352060	0.75	migration z between -2 and 2; enough cells	5286	inactive
ZNF266 (GeneID 10781)	SID255355348	0.78	migration z between -2 and 2; enough cells	4730	inactive
PGC (GeneID 5225)	SID255351537	-1.3	migration z between -2 and 2; enough cells	5384	inactive
NOL11 (GeneID 25926)	SID255356557	-0.22	migration z between -2 and 2; enough cells	5804	inactive
MAPK1 (GeneID 5594)	SID255351811	-3.81	under 3300 nuclei; migration not judged	2952	inactive
H4C15 (GeneID 554313)	SID255366048	2.21	migration z above 2; enough cells	6634	active
